Substitutions are numbered along the chain they refer to. Results are given in words; binding and its absence hold for the method and conditions named. For part of these data: Binding can be weak; no strength is given. For part of these data: Binding seen in cells or lysates may run through a third protein. Blank lines part the entries; values can stand above or below the molecule they belong to.
Columns and labels:
[1] = target: T1, OsRR21 (rice) (UniProt Q8H7S7); assay: two-hybrid; S. cerevisiae AH109; bait in pGBD-C1 (GAL4 binding domain; written as target), prey in pGAD-C1 (GAL4 activation domain; written as binder); serial dilutions spotted on triple drop-out medium with 5 mM 3-AT (HIS3) and quadruple drop-out medium (ADE2), 30 °C; growth on quadruple drop-out shows strong interaction
T1 sequence: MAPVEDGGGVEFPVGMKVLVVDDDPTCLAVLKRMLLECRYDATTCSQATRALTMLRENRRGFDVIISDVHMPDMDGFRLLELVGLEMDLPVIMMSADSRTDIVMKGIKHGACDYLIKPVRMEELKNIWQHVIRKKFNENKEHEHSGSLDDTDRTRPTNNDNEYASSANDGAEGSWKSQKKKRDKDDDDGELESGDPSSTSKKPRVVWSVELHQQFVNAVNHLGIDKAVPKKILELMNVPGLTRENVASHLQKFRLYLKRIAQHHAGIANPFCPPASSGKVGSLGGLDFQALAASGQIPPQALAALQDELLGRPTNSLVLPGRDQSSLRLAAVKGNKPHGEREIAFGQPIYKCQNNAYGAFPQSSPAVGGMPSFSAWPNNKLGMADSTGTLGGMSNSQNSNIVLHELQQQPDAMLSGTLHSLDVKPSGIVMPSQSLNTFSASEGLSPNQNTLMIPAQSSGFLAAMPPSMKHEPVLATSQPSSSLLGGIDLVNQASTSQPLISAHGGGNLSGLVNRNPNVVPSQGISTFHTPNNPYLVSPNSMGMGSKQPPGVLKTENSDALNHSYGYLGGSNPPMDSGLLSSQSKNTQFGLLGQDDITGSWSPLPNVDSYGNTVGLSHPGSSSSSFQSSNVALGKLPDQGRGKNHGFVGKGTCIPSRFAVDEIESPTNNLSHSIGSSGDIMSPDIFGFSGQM

[2] = target: T2, OsRR3 (rice) (UniProt Q6K9T0); assay: as above
T2 sequence: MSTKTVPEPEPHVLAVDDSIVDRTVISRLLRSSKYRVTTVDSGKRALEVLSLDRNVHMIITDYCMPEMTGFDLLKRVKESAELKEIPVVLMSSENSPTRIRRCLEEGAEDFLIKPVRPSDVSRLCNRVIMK

[3] = target: T3, OsRR10 (rice) (UniProt Q2QXY3); assay: as above
T3 sequence: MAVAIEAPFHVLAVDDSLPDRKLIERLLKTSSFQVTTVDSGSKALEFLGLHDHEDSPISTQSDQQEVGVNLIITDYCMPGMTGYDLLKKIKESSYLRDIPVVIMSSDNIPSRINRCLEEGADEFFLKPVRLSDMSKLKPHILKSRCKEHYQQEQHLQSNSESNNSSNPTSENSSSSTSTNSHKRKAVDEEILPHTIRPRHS

[4] = target: T4, OsRR2 (rice) (UniProt Q6YVX7); assay: as above
T4 sequence: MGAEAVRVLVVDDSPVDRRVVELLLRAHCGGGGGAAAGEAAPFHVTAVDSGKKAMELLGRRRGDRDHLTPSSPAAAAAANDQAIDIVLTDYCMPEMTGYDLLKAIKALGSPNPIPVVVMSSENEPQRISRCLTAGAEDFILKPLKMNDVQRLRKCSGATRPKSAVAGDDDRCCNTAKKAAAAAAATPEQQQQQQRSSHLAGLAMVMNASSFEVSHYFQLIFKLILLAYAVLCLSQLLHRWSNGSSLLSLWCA

[5] = target: T5, OsRR9 (rice) (UniProt Q2RAP3); assay: as above
T5 sequence: T3 sequence with G68A, H155N, T179S

[6] = target: OsPHP3 (rice); assay: as above
[7] = target: OsPHP1 (rice); assay: as above
[8] = target: OsPHP2 (rice); assay: as above
[9] = target: OsPHP1 (rice); assay: two-hybrid; β-galactosidase filter lift assay (LacZ reporter) of the co-transformed yeast colonies, X-gal as substrate, 30 °C in the dark
[10] = target: OsPHP1 (BiFC fusion) (rice); assay: split reporter; BiFC in onion epidermal peel cells, nEYFP and cEYFP fusions under the 2XCaMV35S promoter co-transformed by particle bombardment; YFP seen by confocal microscopy 12 hours post transfection; repeated three times
[11] = target: OsPHP3 (rice); assay: two-hybrid; β-galactosidase filter lift assay (LacZ reporter) of the co-transformed yeast colonies, X-gal as substrate, 30 °C in the dark
[12] = target: OsPHP2 (rice); assay: as above

Molecule: OsAHP2 (rice)
binding [1]: no binding
binding [2]: no binding
binding [3]: no binding
binding [4]: no binding
binding [5]: no binding

Molecule: OsAHP1 (rice)
binding [1]: no binding
binding [2]: no binding
binding [3]: no binding
binding [4]: no binding
binding [5]: no binding

B1: OsRR3 (protein, UniProt Q6K9T0 1-131)
chain: T2 sequence
binding [6]: no binding
binding [7]: binds weakly
binding [8]: no binding
binding [9]: binds

B2: nEYFP-OsRR3 (protein, UniProt Q6K9T0 1-131)
chain: T2 sequence
binding [10]: binds

B3: OsRR9 (protein, UniProt Q2RAP3 1-201)
chain: T3 sequence with G68A, H155N, T179S
binding [6]: no binding
binding [8]: no binding

B4: OsRR10 (protein, UniProt Q2QXY3 1-201)
chain: T3 sequence
binding [6]: no binding
binding [8]: no binding

B5: OsRR22 (protein, UniProt Q5SML5 1-696)
chain: MLLGALRMEERKGLMGRERDQFPVGMRVLAVDDDPVCLKVLETLLRRCQYHVTSTNQAITALKLLRENRDMFDLVISDVHMPDMDGFKLLELVGLEMDLPVIMLSVNGETKTVMKGITHGACDYLLKPVRIEELRNIWQHVVRRKFGNRERNNLDFSKECNKPQSADTDHGPYQPTCGSSDQNGRSSRKRKELHGEDDDEGDDNDYQENDEPSAAKKPRVVWSVELHRKFVAAVNQLGIDKAVPKRILELMNVEKLTRENVASHLQKYRLYLKRLGAVASQQASIVAAFGGRDPSFLHIGAFEGLQSYQPFAPSAALPSFNPHGLLTRTSAAAAFGLQELAAPSSTIQTSTGNVTVGHCLEENQQANLAQGLTAAIGQPQLQQNWIHQEGNGLSDVFSGSSLTNTLSSTLQRVPSSSLPPQELLECKQAKVSMPPSIRIPPSSSALLERTLGVSTNLGDSSISQQGALPIDGGFSADRLPLHSSFDGAVATKLDTSLAASQREIGQQGKFSVSMLVSPSDNLALAKNAKTGASSSGSTIILPLDTARHSDYLQFGGASNSLQKMDGQKQDHIQSSNIIWSSMPSTQLPSDTQIHNTQNQRLDSGSFNHNIGAHLADQTNASASILPQMKFDTRISEEKMKQKNTYDLGSSKLQGGFNSSGCNFDGLLNSIIKVEKDDLPFMDNELGCDLFPLGACI
binding [6]: binds
binding [7]: binds
binding [8]: binds
binding [11]: binds
binding [9]: binds
binding [12]: binds

B6: OsRR2 (protein, UniProt Q6YVX7 1-252)
chain: T4 sequence
binding [6]: no binding
binding [8]: no binding

Results, then the molecule that gave them:

binding [1]: no binding
binding [2]: no binding
binding [3]: no binding
binding [4]: no binding
binding [5]: no binding
Molecule: OsPHP2 (rice)

binding [1]: no binding
binding [2]: no binding
binding [3]: no binding
binding [4]: no binding
binding [5]: no binding
Molecule: OsPHP3 (rice)

binding [2]: no binding
binding [3]: no binding
binding [4]: no binding
binding [5]: no binding
Molecule: OsRR27 (rice)

binding [1]: no binding
binding [3]: no binding
binding [4]: no binding
binding [5]: no binding
Molecule: OsPHP1 (rice)

From PMC5571105
